Where a name gives a salt, the structure may show the parent alone. The list shows a part of the results. Single values are uncertain here, since repeats match poorly.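 FDA-approved drugs were each paired with colistin at one-eighth its MIC and screened against a multidrug-resistant, mcr-1-positive clinical E. coli isolate, with OD600 read after 24 h. Drug-free bacteria served as growth control, plain broth as blank. Combinations were active if OD600 dropped below 0.2.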
System: Escherichia coli 42 (mcr-1-positive clinical isolate)
Assay: OD600 after 24 h growth with compound plus colistin (absorbance units (OD600)); higher = more bacterial growth (less inhibition)
Settings: first compound 25 µM; colistin concentration 0.5 ug/mL; incubation time 24 h; 37 °C

OD600, inactive:
Cc1cc(C)cc(OCC2CNC(=O)O2)c1 (stereo unspecified) [Metaxalone] + CCC(C)CCCC(=O)N[C@@H](CCN)C(=O)N[C@H](C(=O)N[C@@H](CCN)C(=O)N[C@H]1CCNC(=O)[C@H]([C@@H](C)O)NC(=O)[C@H](CCN)NC(=O)[C@H](CCN)NC(=O)[C@H](CC(C)C)NC(=O)[C@@H](CC(C)C)NC(=O)[C@H](CCN)NC1=O)[C@@H](C)O [colistin] 0.998, CCCC(=O)Nc1ccc(OCC(O)CNC(C)C)c(C(C)=O)c1 (stereo unspecified) [Acebutolol hydrochloride] + CCC(C)CCCC(=O)N[C@@H](CCN)C(=O)N[C@H](C(=O)N[C@@H](CCN)C(=O)N[C@H]1CCNC(=O)[C@H]([C@@H](C)O)NC(=O)[C@H](CCN)NC(=O)[C@H](CCN)NC(=O)[C@H](CC(C)C)NC(=O)[C@@H](CC(C)C)NC(=O)[C@H](CCN)NC1=O)[C@@H](C)O [colistin] 1.06, CN[C@@H]1[C@H](O)[C@H](NC)[C@H]2O[C@@]3(O)C(=O)C[C@@H](C)O[C@H]3O[C@@H]2[C@H]1O [Spectinomycin dihydrochloride] + CCC(C)CCCC(=O)N[C@@H](CCN)C(=O)N[C@H](C(=O)N[C@@H](CCN)C(=O)N[C@H]1CCNC(=O)[C@H]([C@@H](C)O)NC(=O)[C@H](CCN)NC(=O)[C@H](CCN)NC(=O)[C@H](CC(C)C)NC(=O)[C@@H](CC(C)C)NC(=O)[C@H](CCN)NC1=O)[C@@H](C)O [colistin] 1.11, Cc1cccc(C)c1OCC(=O)N[C@@H](Cc1ccccc1)[C@@H](O)C[C@H](Cc1ccccc1)NC(=O)[C@H](C(C)C)N1CCCNC1=O [Lopinavir] + CCC(C)CCCC(=O)N[C@@H](CCN)C(=O)N[C@H](C(=O)N[C@@H](CCN)C(=O)N[C@H]1CCNC(=O)[C@H]([C@@H](C)O)NC(=O)[C@H](CCN)NC(=O)[C@H](CCN)NC(=O)[C@H](CC(C)C)NC(=O)[C@@H](CC(C)C)NC(=O)[C@H](CCN)NC1=O)[C@@H](C)O [colistin] 0.733, COc1cc2nc(N(C)CCCNC(=O)C3CCCO3)nc(N)c2cc1OC (stereo unspecified) [Alfuzosin hydrochloride] + CCC(C)CCCC(=O)N[C@@H](CCN)C(=O)N[C@H](C(=O)N[C@@H](CCN)C(=O)N[C@H]1CCNC(=O)[C@H]([C@@H](C)O)NC(=O)[C@H](CCN)NC(=O)[C@H](CCN)NC(=O)[C@H](CC(C)C)NC(=O)[C@@H](CC(C)C)NC(=O)[C@H](CCN)NC1=O)[C@@H](C)O [colistin] 1.09, CN(C)c1nc(N(C)C)nc(N(C)C)n1 [Altretamine] + CCC(C)CCCC(=O)N[C@@H](CCN)C(=O)N[C@H](C(=O)N[C@@H](CCN)C(=O)N[C@H]1CCNC(=O)[C@H]([C@@H](C)O)NC(=O)[C@H](CCN)NC(=O)[C@H](CCN)NC(=O)[C@H](CC(C)C)NC(=O)[C@@H](CC(C)C)NC(=O)[C@H](CCN)NC1=O)[C@@H](C)O [colistin] 1.15, COc1cc2/c(=N/c3ccc(Br)cc3F)nc[nH]c2cc1OCC1CCN(C)CC1 [Vandetanib] + CCC(C)CCCC(=O)N[C@@H](CCN)C(=O)N[C@H](C(=O)N[C@@H](CCN)C(=O)N[C@H]1CCNC(=O)[C@H]([C@@H](C)O)NC(=O)[C@H](CCN)NC(=O)[C@H](CCN)NC(=O)[C@H](CC(C)C)NC(=O)[C@@H](CC(C)C)NC(=O)[C@H](CCN)NC1=O)[C@@H](C)O [colistin] 1.08, CO[C@H]1C[C@@H]2CC[C@@H](C)[C@@](O)(O2)C(=O)C(=O)N2CCCC[C@H]2C(=O)O[C@H]([C@H](C)C[C@@H]2CC[C@@H](O)[C@H](OC)C2)CC(=O)[C@H](C)/C=C(\C)[C@@H](O)[C@@H](OC)C(=O)[C@H](C)C[C@H](C)/C=C/C=C/C=C/1C [Rapamycin] + CCC(C)CCCC(=O)N[C@@H](CCN)C(=O)N[C@H](C(=O)N[C@@H](CCN)C(=O)N[C@H]1CCNC(=O)[C@H]([C@@H](C)O)NC(=O)[C@H](CCN)NC(=O)[C@H](CCN)NC(=O)[C@H](CC(C)C)NC(=O)[C@@H](CC(C)C)NC(=O)[C@H](CCN)NC1=O)[C@@H](C)O [colistin] 1.01, CC[C@]1(O)C[C@H]2CN(CCc3c([nH]c4ccccc34)[C@@](C(=O)OC)(c3cc4c(cc3OC)N(C=O)[C@H]3[C@@](O)(C(=O)OC)[C@H](OC(C)=O)[C@]5(CC)C=CCN6CC[C@]43[C@@H]65)C2)C1 [Vincristine sulfate] + CCC(C)CCCC(=O)N[C@@H](CCN)C(=O)N[C@H](C(=O)N[C@@H](CCN)C(=O)N[C@H]1CCNC(=O)[C@H]([C@@H](C)O)NC(=O)[C@H](CCN)NC(=O)[C@H](CCN)NC(=O)[C@H](CC(C)C)NC(=O)[C@@H](CC(C)C)NC(=O)[C@H](CCN)NC1=O)[C@@H](C)O [colistin] 1.04, CC(=O)OCC(=O)[C@@]1(O)CC[C@H]2[C@@H]3CCC4=CC(=O)CC[C@]4(C)[C@H]3[C@@H](O)C[C@@]21C [Hydrocortisone acetate] + CCC(C)CCCC(=O)N[C@@H](CCN)C(=O)N[C@H](C(=O)N[C@@H](CCN)C(=O)N[C@H]1CCNC(=O)[C@H]([C@@H](C)O)NC(=O)[C@H](CCN)NC(=O)[C@H](CCN)NC(=O)[C@H](CC(C)C)NC(=O)[C@@H](CC(C)C)NC(=O)[C@H](CCN)NC1=O)[C@@H](C)O [colistin] 1.12, O=C(O)c1cc(=O)c2c(OCC(O)COc3cccc4oc(C(=O)O)cc(=O)c34)cccc2o1 [Cromolyn sodium] + CCC(C)CCCC(=O)N[C@@H](CCN)C(=O)N[C@H](C(=O)N[C@@H](CCN)C(=O)N[C@H]1CCNC(=O)[C@H]([C@@H](C)O)NC(=O)[C@H](CCN)NC(=O)[C@H](CCN)NC(=O)[C@H](CC(C)C)NC(=O)[C@@H](CC(C)C)NC(=O)[C@H](CCN)NC1=O)[C@@H](C)O [colistin] 1.11, O=c1[nH]cc(F)c(=O)[nH]1 [5-Fluorouracil] + CCC(C)CCCC(=O)N[C@@H](CCN)C(=O)N[C@H](C(=O)N[C@@H](CCN)C(=O)N[C@H]1CCNC(=O)[C@H]([C@@H](C)O)NC(=O)[C@H](CCN)NC(=O)[C@H](CCN)NC(=O)[C@H](CC(C)C)NC(=O)[C@@H](CC(C)C)NC(=O)[C@H](CCN)NC1=O)[C@@H](C)O [colistin] 0.712, Cc1ccnc(NS(=O)(=O)c2ccc(N)cc2)n1 [Sulfamerazine] + CCC(C)CCCC(=O)N[C@@H](CCN)C(=O)N[C@H](C(=O)N[C@@H](CCN)C(=O)N[C@H]1CCNC(=O)[C@H]([C@@H](C)O)NC(=O)[C@H](CCN)NC(=O)[C@H](CCN)NC(=O)[C@H](CC(C)C)NC(=O)[C@@H](CC(C)C)NC(=O)[C@H](CCN)NC1=O)[C@@H](C)O [colistin] 1.15, CCOc1ccc2ccccc2c1C(=O)N[C@@H]1C(=O)N2[C@@H]1SC(C)(C)[C@@H]2C(=O)O [Nafcillin sodium monohydrate] + CCC(C)CCCC(=O)N[C@@H](CCN)C(=O)N[C@H](C(=O)N[C@@H](CCN)C(=O)N[C@H]1CCNC(=O)[C@H]([C@@H](C)O)NC(=O)[C@H](CCN)NC(=O)[C@H](CCN)NC(=O)[C@H](CC(C)C)NC(=O)[C@@H](CC(C)C)NC(=O)[C@H](CCN)NC1=O)[C@@H](C)O [colistin] 0.989, CN(C)CC/C=C1/c2ccccc2COc2ccc(CC(=O)O)cc21 [Olopatadine hydrochloride] + CCC(C)CCCC(=O)N[C@@H](CCN)C(=O)N[C@H](C(=O)N[C@@H](CCN)C(=O)N[C@H]1CCNC(=O)[C@H]([C@@H](C)O)NC(=O)[C@H](CCN)NC(=O)[C@H](CCN)NC(=O)[C@H](CC(C)C)NC(=O)[C@@H](CC(C)C)NC(=O)[C@H](CCN)NC1=O)[C@@H](C)O [colistin] 1.17, CNC(=O)c1ccccc1Sc1ccc2c(/C=C/c3ccccn3)n[nH]c2c1 [Axitinib] + CCC(C)CCCC(=O)N[C@@H](CCN)C(=O)N[C@H](C(=O)N[C@@H](CCN)C(=O)N[C@H]1CCNC(=O)[C@H]([C@@H](C)O)NC(=O)[C@H](CCN)NC(=O)[C@H](CCN)NC(=O)[C@H](CC(C)C)NC(=O)[C@@H](CC(C)C)NC(=O)[C@H](CCN)NC1=O)[C@@H](C)O [colistin] 0.954
